Consider one molecule from publication PMC5011961, “In vitro antimicrobial activities of animal-used quinoxaline 1,4-di-N-oxides against mycobacteria, mycoplasma and fungi” (BMC Veterinary Research, 2016).

≈ marks a conversion by molar mass, not a printed value.

The subject of this experiment is M. gallisepticum. Nature of the experiment: Antimycoplasma assay, MIC in microtiter plates. As to conditions: Mycoplasmoides gallisepticum.

As for `CCC[C@@H]1C[C@@H](C(=O)N[C@@H]([C@H]2O[C@H](SC)[C@H](O)[C@@H](O)[C@H]2O)[C@H](C)Cl)N(C)C1` [Clindamycin, clindamycin], the MIC (in general, the lowest concentration found to suppress growth) was determined as 0.6 mg/L (≈ 1.41 µM) (M. gallisepticum BG44T (10^4ccu/mL)) and 3.2 mg/L (≈ 7.53 µM) (M. gallisepticum PG31 (10^8 ccu/mL)).
